From patent EP2009026A1 (ThromboGenics N.V., dated 2008)
Results are given in words; binding and its absence hold for the method and conditions named. Some binding calls cover weakened binding; strength is not graded here. Tags and fused reporters may be left off the sequences shown.

Molecular target: T1, GST fusion protein of VPAC1 extracellular loop 3 (human)
T1 sequence: PDNFKPEVKMLFE
Assay: western blotting of GST-loop fusion proteins

B1: murine monoclonal anti-VPAC1 antibody 23A11 (antibody, V domains shown)
VH: EVQLQESGPSLVKPSQTLSLTCSVTGDSITSGYWNWIRKFPGNKLEYMGYIRYSGSTYYSPALKSRFSITRDTSKNQYYLQLNSVTTEDTATYYCSNWAYWGQGTLVTVSA
VL: DIVITQDELSNPVTSGESVSISCRSSKSLLYKDGKTYLNWFLQRPGQSPQLLIYLMSTRASGVSDRFSGSGSGTDFTLEISRVKAEDVGVYYCQQLVEYPLTFGAGTKLELK
notes: Murine hybridoma antibody (BALB/c mice); also called murine 23A11; anti-VPAC1 receptor antibody 23A11
  binding: binds
